Results: PubChem BioAssay AID1347423 (Functional Genomics Laboratory (NCATS/FGL), 2020)
In all, about 52,000 sequences went through this assay and about 210 (0.4%) were called active.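 How the source made its calls: active means gene whose silencing raises cell survival under the drug, median off-target-corrected z-score across its silencing RNAs 2 or more; inactive means the rest.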 This is one part of the list.

Assay: Resistance to Poly (ADP-Ribose) Polymerase inhibitor: Gene Identification via Genome-wide siRNA Screen
Conditions: mouse BRCA2 R2336H ES cells, olaparib, CellTiter-Glo viability; stronger effect = higher value
In short: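 Mouse BRCA2 R2336H ES cells were reverse-transfected with siRNA (20 nM final), treated at 48 h with 500 nM olaparib, and read by CellTiter-Glo after 72 h. Scores: MAD-based z per siRNA, median per gene, seed off-target correction.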

Row | Sequence | z-score
1 | GCAGCUGUCAUGUAUACAGTT against Olfr59 | inactive: -1.53
2 | GGUUUGGCCUGGAGUGAAATT against Olfr126 | inactive: -2.68
3 | GGGCUAAAGUAUAUCCAUUTT against Mapk1 | active: 1.14
4 | GCCAAUACCAAUCAAGCUGTT against Brunol4 | inactive: -0.848
5 | CCUAUUCAUGCGUCUGUGGTT against Atp6v0c | inactive: -1.69
6 | GGACCAGGUAGAGCAAUUUTT against BC034099 | inactive: 0.676
7 | GAUAUGUUCGACAACGGCATT against Foxd1 | inactive: -1.08
8 | CCAAAUGGUGGUGCUGAGUTT against Jam4 | inactive: 0.705
9 | GGAUCAAUGAUACAACUGATT against Il1r1 | inactive: -0.0968
10 | GGACAAAGAAGACUCCCGATT against Dpf2 | inactive: 0.386
11 | GCCCAAUAGCACAAAGAACTT against Mlr2 | inactive: 0.852
12 | GGUCCUAGGUACAAUCACUTT against Slfn10 | inactive: -1.07
13 | GGAAACAAUUCAUGAGCAUTT against 4933424B01Rik | inactive: 2.48
14 | GGAGGACCUAGAUGUCAAATT against 1110021E09Rik | inactive: -1.16
15 | GGAAAUUCAUGUGACUAUGTT against Sybl1 | inactive: 1.62
16 | GGAAGUUUCCAGCAAGACATT against Spn | inactive: -2.7
17 | GGACAAUGUGGACUUUGAUTT against 9530090G24Rik | inactive: -1.46
18 | GCCUAUGAACUUAAUGGCCTT against Zfp180 | inactive: 1.68
19 | CGGUUGACAGGUAUAUCGCTT against Gpr139 | inactive: -0.529
20 | GGUUUCAAAGAGUCUCAUUTT against BC006583 | inactive: -0.0448
21 | GUUGUUUAUAGCUUAAGGATT against Olfr1450 | inactive: -0.596
22 | GGACAAUAGGAGCCUUUAATT against V1rh20 | inactive: -0.452
23 | GGUUUGUUAGGCAUGAUAATT against Adamts16 | inactive: -0.0921

Row | Sequence | z-score
24 | GGUAACCUGAUGGCUGAAATT against AI839920 | inactive: 1.75
25 | GAGCUGGGAGGUUUCACAGTT against Bzrp | inactive: -0.489
26 | CUCUAUGGACUAUAGCUAATT against Tas2r109 | inactive: 0.234
27 | GCGUGUUUGACCGACACGATT against Plekha3 | inactive: 0.585
28 | GCGGGAGACAGAAUACGGUTT against Igfbp3 | inactive: 0.491
29 | GGAGGAGCUACUGAAAGAUTT against D19Wsu162e | inactive: 0.754
30 | CGGAGUUUUCAAACAUAUGTT against Anapc13 | inactive: 0.841
31 | GCUUAAGAUUGGAAUACUATT against E130113K22Rik | inactive: -1.28
32 | GGGAAUUUCACACUGAGUATT against Tpm4 | inactive: -1.29
33 | GCCGUUCACCAUGAAAUGGTT against Prkci | inactive: 0.78
34 | GGAAAUCGAGAGAAAUUCATT against Tead2 | inactive: 0.624
35 | GGACAAGAGGAGCUUUUGCTT against Idb3 | inactive: -0.686
36 | GGAAGAUGGCAAUAAUAACTT against 2010012O05Rik | inactive: 0.402
37 | GGGCUAUUAAAUGAUUUCATT against Pax1 | inactive: -0.101
38 | GGUCUUCAGGAACCUGAGATT against Pip5k2c | inactive: -1.91
39 | GGAUGAAAUGGAAGAAGAUTT against Barx2 | inactive: -1.55
40 | GCAUAUUUGCUCCAUUGAUTT against Olfr1162 | inactive: -0.708
41 | GGAUGAUUUCCAGAUCCAGTT against Vmp | inactive: -0.433
42 | GGGAAUUUACCAAGUACCCTT against Nedd9 | inactive: -1.05
43 | GAUUCAACCUGUCCAAGCUTT against Nat6 | inactive: 0.907
44 | GGGAAUAUGUCUUGUGAUATT against 5330420D20Rik | inactive: 0.347
45 | GUGACACCUUUAUGGAGAGTT against Olfr1271 | inactive: 1.01
46 | CCUACAGUACUUCAAGCGGTT against Hip1 | inactive: 0.956

Row | Sequence | z-score
47 | GUAACUCAGCAUUUGAUACTT against Krtap16-5 | inactive: 0.115
48 | GCAGCCUCUUCUAUUUGGCTT against Olfr354 | inactive: 0.183
49 | GGAUAUCCAAGCUUUUGAATT against Dnajc9 | inactive: 1.08
50 | GGAGAUUGGGAUCAAUUAGTT against B130022O04Rik | inactive: 1.13
51 | GCUUUGUUCUAAAUUCAUGTT against Cd2ap | inactive: 0.744
52 | GGACAUUUUACAGACUCCUTT against 4833405L16Rik | inactive: -1.69
53 | GCGUGAAGUCUUUCUGGAGTT against Usp20 | inactive: 0.259
54 | GGAGCUUUUGGACAUUUAUTT against Laptm4a | inactive: -0.109
55 | GGUGGAAGAGGAGAGUGAATT against Ncl | inactive: 1.87
56 | GCCUAUGCUUAAUUAGCAUTT against Farp1 | inactive: 0.184
57 | CGGCAUCCAGUCUCAGAUGTT against Coch | inactive: 0.728
58 | GGUCUUUAGCAAAUUGUUCTT against Lrrc6 | inactive: 0.951
59 | GGGCUUUCAUUCUUGUAUCTT against Olfr68 | inactive: 0.329
60 | GGACUUCUUCUUUAGCAGATT against Ddit4l | inactive: 0.616
61 | GCUAUUCUGAUGCGUGGAGTT against 2310002F18Rik | inactive: -0.0159
62 | GGAUGACACCAAGAAAUAUTT against 6430402L03Rik | inactive: -1.2
63 | GCACGCAGACAAAAUGGGCTT against 4931433A13Rik | inactive: -0.237
64 | CCUUCUCAAGUUCGACGUGTT against Mafb | inactive: 0.452
65 | CCUUUAGCCAGACCAUUGCTT against U2af1 | inactive: -2.52
66 | GCUAGCUCGUGUGAUGUUUTT against Peo1 | inactive: -2.89
67 | GGAAAACUAUCUCCUUUUGTT against Olfr716 | inactive: 0.364

Looked up above:
In z-score, CCUUCUCAAGUUCGACGUGTT against Mafb is listed with inactive: 0.452
In z-score, GAGCUGGGAGGUUUCACAGTT against Bzrp is listed with inactive: -0.489
In z-score, GCGUGAAGUCUUUCUGGAGTT against Usp20 is listed with inactive: 0.259
In z-score, GGAAAACUAUCUCCUUUUGTT against Olfr716 is listed with inactive: 0.364
